Assay results from PubChem BioAssay (NCATS).
“And” between values parts separate entries of the source, which are not always exact repeats. Equal entries are not always repeated. This is one part of the list. These are further read-outs of the screen, such as a control signal, another cell line or another target. No call is given for them. The list favours compounds with an active or inconclusive main result. The note in brackets gives the kind of curve behind each potency; many fits are weak.

Assay: qHTS assay for small molecule antagonists of peroxisome proliferator-activated receptor gamma signaling (AID 588537)
Conditions: HEK293 PPARg-UAS-bla, beta-lactamase ratio, antagonist mode; measured here: W460 blue channel
How it was run: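 PPARγ-UAS-bla HEK293 cells (3000/well) in 1% charcoal/dextran-stripped FBS are treated with compound, then stimulated with 50 nM rosiglitazone for 16 h at 37 °C. Read-out is CCF4 β-lactamase fluorescence after 2 h at RT. IC50 comes from Hill fits normalised to rosiglitazone and DMSO.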

| SMILES | AC50 |
| --- | --- |
| Cc1cc(Cc2cc(C)cc(C(C)(C)C)c2O)c(O)c(C(C)(C)C)c1 | 44.7 µM [falling, partial curve] |
| Nc1nc2ccc([N+](=O)[O-])cc2s1 | 63.1 µM [rising, single point] |
| C[C@@H]1CC2(OC3C[C@@]4(C)C5=CC[C@H]6C(C)(C)C(O[C@@H]7OC[C@@H](O)[C@H](O)[C@H]7O)CC[C@@]67C[C@@]57CC[C@]4(C)C31)OC(O)C1(C)OC21 (stereo partly drawn) | 50.1 µM [rising, single point] |
| Oc1c(Cl)ccc(Cl)c1Cl | 11.2 µM [falling, full curve, poor fit] |
| C=C1C(CCl)(CCl)C2(Cl)C(Cl)C(Cl)C1(Cl)C2(Cl)Cl (stereo not drawn) | 14.1 µM [falling, full curve, poor fit] |
| Cc1ccc(S(=O)(=O)C(I)I)cc1 | 39.8 µM [falling, partial curve] |
| O=C(O)/C=C/c1ccc(/C=C/C(=O)O)cc1 | 50.1 µM [rising, single point] |
| CCC(C)Nc1ccc(NC(C)CC)cc1 (stereo not drawn) | 35.5 µM [falling, partial curve] and 44.7 µM [falling, partial curve] |
| C[C@@H]1CC2(OC(O)[C@]3(C)O[C@H]23)O[C@H]2C[C@@]3(C)[C@@H]4CC[C@H]5C(C)(C)C(O[C@@H]6OC[C@@H](O)[C@H](O)[C@H]6O)CC[C@@]56C[C@@]46CC[C@]3(C)[C@@H]12 (stereo partly drawn) | 50.1 µM [rising, single point] |
| O=C(OCC(COC(=O)c1ccccc1)(COC(=O)c1ccccc1)COC(=O)c1ccccc1)c1ccccc1 | 39.8 µM [falling, partial curve, poor fit] |
| C1CCC2OC2C1 (stereo not drawn) | 70.8 µM [rising, single point] |
| CC(=O)S[C@@H]1CC2=CC(=O)CC[C@]2(C)[C@H]2CC[C@@]3(C)[C@@H](CC[C@@]34CCC(=O)O4)[C@H]12 | 0.0355 µM [falling, full curve, poor fit] |
| O=C1c2c(O)ccc([N+](=O)[O-])c2C(=O)c2c([N+](=O)[O-])ccc(O)c21 | 22.4 µM [falling, full curve] |
| Nc1c(N=Nc2ccc(S(=O)(=O)CCOS(=O)(=O)O)cc2)c(S(=O)(=O)O)cc2cc(S(=O)(=O)O)c(N=Nc3ccc(S(=O)(=O)CCOS(=O)(=O)O)cc3)c(O)c12 | 0.0398 µM [falling, full curve, poor fit] |
| C[C@@H]1CC2(OC[C@]3(C)O[C@H]23)O[C@H]2C[C@@]3(C)[C@@H]4CC[C@H]5C(C)(C)C(O[C@@H]6OC[C@@H](O)[C@H](O)[C@H]6O)CC[C@@]56C[C@@]46CC[C@]3(C)[C@@H]12 (stereo partly drawn) | 50.1 µM [rising, single point] |
| Nc1ccc2c(c1)C(=O)c1ccccc1C2=O | 50.1 µM [rising, single point] and 89.1 nM [falling, full curve, poor fit] |
| O=C(O)CN(CCCN(CC(=O)O)CC(=O)O)CC(=O)O | 17.8 µM [falling, partial curve, poor fit] |
| C=CC(=O)OCCOCC(CC)(COCCOC(=O)C=C)COCCOC(=O)C=C | 50.1 µM [falling, single point] |
| Cc1cc(=O)oc2cc(O)cc(O)c12 | 50.1 µM [rising, single point] |
| OCCO | 56.2 µM [rising, single point] |
| COc1ccc(C(=O)c2ccccc2)c(O)c1 | 50.1 µM [rising, single point] |
| Nc1ccc(F)cc1F | 50.1 µM [rising, single point] |
| Cc1cc(O)c(C(C)(C)C)cc1Sc1cc(C(C)(C)C)c(O)cc1C | 39.8 µM [falling, partial curve] and 39.8 µM [falling, partial curve, poor fit] |

Part of the list above in order of molecular weight, high to low:

| SMILES | AC50 |
| --- | --- |
| C[C@@H]1CC2(OC(O)[C@]3(C)O[C@H]23)O[C@H]2C[C@@]3(C)[C@@H]4CC[C@H]5C(C)(C)C(O[C@@H]6OC[C@@H](O)[C@H](O)[C@H]6O)CC[C@@]56C[C@@]46CC[C@]3(C)[C@@H]12 (stereo partly drawn) | 50.1 µM [rising, single point] |
| C=CC(=O)OCCOCC(CC)(COCCOC(=O)C=C)COCCOC(=O)C=C | 50.1 µM [falling, single point] |
| OCCO | 56.2 µM [rising, single point] |
